Several values for one entry are separate records, joined by “and”; a condition that tells them apart may be missing. Equal values may be shown once. Where a name gives a salt, the structure may show the parent alone. ± gives the standard deviation of the averaged measurements. Some of the results follow. Baselines shift from plate to plate; read single values as rough.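 Primary human stellate myofibroblasts activated in culture; inactivation shown by regained lipid droplets. Readout: fraction of Hoechst-counted cells exceeding a per-plate Bodipy threshold, duplicate wells, each plate with DMSO negative and nortriptyline positive controls. Hits: control-normalized score beyond the plate's top-tenth-percentile nortriptyline wells, or among its three best wells. Final well concentrations unstated.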
Tested on: primary human hepatic stellate cells (donor 1)
Assay: percent Bodipy-positive cells; higher = more lipid droplet accumulation
Conditions: 48 h
[1] = library stock concentration: 10 mM
[2] = library stock concentration: 2 mM
[3] = library stock concentration: 3.33 mM
[4] = library stock concentration: 1 mM
[5] = library stock concentration: 80 uM
[6] = library stock concentration: 400 uM

**Q.** Which “percent Bodipy-positive cells” value [1] does the source give for `CC(O)CC(C)(C)O` (configuration not stated) here?
**A.** The value was 31.2 ± 1.6%.

**Q.** For `COc1ccc2cc1Oc1ccc(cc1)C[C@H]1c3c(cc4c(c3Oc3cc5c(cc3OC)CCN(C)[C@@H]5C2)OCO4)CCN1C` [Cepharanthine], which “percent Bodipy-positive cells” value [1] is on record?
**A.** Its value is 99.593 ± 0.058%.

**Q.** How did the “percent Bodipy-positive cells” value [1] turn out when `COc1cc(C(O)C(=O)O)ccc1O` (configuration not stated) was run?
**A.** The value was 54.5 ± 12%.

**Q.** Which “percent Bodipy-positive cells” value [2] does the source give for `CN(C)CC=CC(=O)Nc1cc2c(Nc3ccc(F)c(Cl)c3)ncnc2cc1OC1CCOC1` (configuration not stated) here?
**A.** Its value is 80.7 ± 3%.

**Q.** Which results are given for `c1ccc(Cn2c(-c3ccc(OCC(C4CCNCC4)n4c(-c5ccccc5)nc5ccccc54)cc3)nc3ccccc32)cc1` (configuration not stated) [Deltarasin]?
**A.** percent Bodipy-positive cells [3]: 94.94 ± 0.12%; percent Bodipy-positive cells [1]: 99.33 ± 0.94%

**Q.** Which “percent Bodipy-positive cells” value [1] does the source give for `O=C(Nc1ccc(C(F)(F)F)cn1)N1CCN(c2ncccc2C(F)(F)F)CC1` here?
**A.** The value was 9.05 ± 0.77%.

**Q.** How did the “percent Bodipy-positive cells” value (library stock concentration: 12 mM) turn out when `CCOC(=O)c1ccc(O)cc1` [Ethyl paraben] was run?
**A.** Its value is 2.91 ± 1.2%.

**Q.** For `CC(=O)O[C@H]1Cc2ccccc2N(C(N)=O)c2ccccc21`, which “percent Bodipy-positive cells” value [1] is on record?
**A.** Its value is 15.8 ± 2.7%.

**Q.** How did the “percent Bodipy-positive cells” value [4] turn out when `CCCCCCC[C@H](O)/C=C/[C@H]1[C@H](O)CC(=O)[C@@H]1C/C=C\CCCC(=O)O` [20-ethyl Prostaglandin E2] was run?
**A.** The value was 18.5 ± 7%.

**Q.** How did the “percent Bodipy-positive cells” value [1] turn out when `COC(=O)Nc1nc2cc(C(=O)c3ccc(F)cc3)ccc2[nH]1` was run?
**A.** The value was 99.1 ± 1.3%.

**Q.** How did the “percent Bodipy-positive cells” value (library stock concentration: 6.4 mM) turn out when `COC(=O)Nc1nc2cc(C(=O)c3ccc(F)cc3)ccc2[nH]1` [Flubendazole] was run?
**A.** The value was 80.5 ± 0.94%.

**Q.** How did the “percent Bodipy-positive cells” value [3] turn out when `Cc1ccc(-n2[nH]c(C)c(N=Nc3cccc(-c4cccc(C(=O)O)c4)c3O)c2=O)cc1C` [Eltrombopag] was run?
**A.** The value was 2.87 ± 0.43%.

**Q.** And the “percent Bodipy-positive cells” value [1]?
**A.** Its value is 6.51 ± 1%.

**Q.** What does the source list for `COc1cc(OC)cc(-c2ccc3ncc4ccc(=O)n(-c5ccc(N6CCNCC6)c(C(F)(F)F)c5)c4c3c2)c1`?
**A.** percent Bodipy-positive cells [5]: 7.05 ± 0.13%; percent Bodipy-positive cells [6]: 35.2 ± 3.2%; percent Bodipy-positive cells [2]: 72 ± 12%; percent Bodipy-positive cells [1]: 97.76 ± 0.6%

**Q.** `COc1cc2ncnc(Nc3cccc(O)c3)c2cc1OC` [WHI-P180, Hydrochloride] was tested. Which “percent Bodipy-positive cells” value [3] did it give?
**A.** Its value is 13.3 ± 1.3%.

**Q.** With `O=C1CCc2c(ccc3ccccc23)O1` [Splitomicin] as the compound, how does the “percent Bodipy-positive cells” value [1] read?
**A.** The value was 8.29 ± 3.2%.

**Q.** With `CC[C@@H]1C(=O)N(C)c2cnc(Nc3ccc(C(=O)NC4CCN(C)CC4)cc3OC)nc2N1C1CCCC1` as the compound, how does the “percent Bodipy-positive cells” value [5] read?
**A.** Its value is 18 ± 5.6%.

**Q.** And the “percent Bodipy-positive cells” value [6]?
**A.** The value was 57.1 ± 4.8%.

**Q.** And the “percent Bodipy-positive cells” value [3]?
**A.** Its value is 100%.

**Q.** And the “percent Bodipy-positive cells” value [1]?
**A.** Its value is 99.5% and 97.4% and 100%.

**Q.** Which “percent Bodipy-positive cells” value [3] does the source give for `COc1cc2c(Nc3ccc(Br)cc3F)ncnc2cc1OCC1CCN(C)CC1` [Vandetanib (ZD6474)] here?
**A.** The value was 95.6 ± 2.3%.

**Q.** `O=C1c2ccccc2C(Cc2ccncc2)(Cc2ccncc2)c2ccccc21` [XE 991 dihydrochloride] was tested. Which “percent Bodipy-positive cells” value [1] did it give?
**A.** The value was 9.34 ± 1.3%.

**Q.** How did the “percent Bodipy-positive cells” value [4] turn out when `O=C(NCCN1CCC(n2c(=O)[nH]c3cc(Cl)ccc32)CC1)c1ccc(F)cc1` [Halopemide] was run?
**A.** The value was 15.5 ± 6.3%.

**Q.** `O=S(=O)(c1cccc2c(Cl)cccc12)N1CCCNCC1` was tested. Which “percent Bodipy-positive cells” value (library stock concentration: 15.4 mM) did it give?
**A.** Its value is 91.6 ± 1.6%.

**Q.** With `CNCCc1c[nH]c(CCC(c2ccccc2)c2ccccc2)n1.O=C(O)C(=O)O.O=C(O)C(=O)O` [N-Methylhistaprodifen dioxalate salt] as the compound, how does the “percent Bodipy-positive cells” value [1] read?
**A.** The value was 100%.

**Q.** Which results are given for `Cc1c(OCC(F)(F)F)ccnc1C[S+]([O-])c1nc2ccccc2[nH]1` (configuration not stated) [Lansoprazole]?
**A.** percent Bodipy-positive cells: 8.05 ± 1%; percent Bodipy-positive cells [3]: 14.7 ± 11%; percent Bodipy-positive cells (library stock concentration: 5.4 mM): 11.48 ± 0.071%

**Q.** With `[N-]=[N+]=Nc1ccc(C(=O)CSC[C@H](NC(=O)CC[C@H](N)C(=O)O)C(=O)NCC(=O)O)cc1` [S-(p-Azidophenacyl)glutathione] as the compound, how does the “percent Bodipy-positive cells” value [1] read?
**A.** Its value is 38.4 ± 9.6%.

**Q.** Which “percent Bodipy-positive cells” value [1] does the source give for `CC(C)(C)NCC(O)c1ccc(O)c(CO)c1` (configuration not stated) here?
**A.** Its value is 5.84 ± 0.098%.

**Q.** Which “percent Bodipy-positive cells” value [1] does the source give for `CC(C)(C)NCC(O)c1ccc(O)c(CO)c1` (configuration not stated) [Albuterol hemisulfate] here?
**A.** The value was 25.4 ± 5.2%.

**Q.** How did the “percent Bodipy-positive cells” value turn out when `CC(C)(C)NCC(O)c1ccc(O)c(CO)c1` (configuration not stated) [Salbutamol] was run?
**A.** Its value is 24.5 ± 0.45%.

**Q.** `Nc1nc2c(nc(O)n2[C@@H]2O[C@H](CO)[C@@H](O)[C@H]2O)c(=O)[nH]1` [8-hydroxy Guanosine] was tested. Which “percent Bodipy-positive cells” value [4] did it give?
**A.** Its value is 11.5 ± 3.5%.

**Q.** Which “percent Bodipy-positive cells” value [3] does the source give for `CO[C@H]1C[C@@H]2CC[C@@H](C)[C@@](O)(O2)C(=O)C(=O)N2CCCC[C@H]2C(=O)O[C@H]([C@H](C)C[C@@H]2CC[C@@H](OP(C)(C)=O)[C@H](OC)C2)CC(=O)[C@H](C)/C=C(\C)[C@@H](O)[C@@H](OC)C(=O)[C@H](C)C[C@H](C)/C=C/C=C/C=C/1C` [Ridaforolimus (Deforolimus, MK-8669)] here?
**A.** The value was 3.01 ± 1.9%.

**Q.** What about the “percent Bodipy-positive cells” value [1] of the same compound?
**A.** Its value is 17.4 ± 1.7%.

**Q.** `CCCCC[C@H](O)CC(=O)CCc1ccc(O)c(OC)c1` [6-Gingerol] was tested. Which “percent Bodipy-positive cells” value (library stock concentration: 17 mM) did it give?
**A.** Its value is 11 ± 1.2%.

**Q.** `COc1cc2ncnc(Nc3cc(Br)c(O)c(Br)c3)c2cc1OC` was tested. Which “percent Bodipy-positive cells” value [5] did it give?
**A.** The value was 7.32 ± 3.3%.

**Q.** What about the “percent Bodipy-positive cells” value [6] of the same compound?
**A.** Its value is 9.61 ± 3.6%.

**Q.** What about the “percent Bodipy-positive cells” value [2] of the same compound?
**A.** Its value is 8.72 ± 3.1%.

**Q.** What about the “percent Bodipy-positive cells” value [1] of the same compound?
**A.** Its value is 4.53 ± 0.57%.

**Q.** How did the “percent Bodipy-positive cells” value [1] turn out when `CCn1c(=O)n(C2=C(CO)CN(CC3CCCCCCC3)CC2)c2ccccc21` was run?
**A.** The value was 20.6 ± 7.4%.

**Q.** For `CCCCCCCC/C=C\CCCCCCCC(=O)O` [Oleic Acid], which “percent Bodipy-positive cells” value [4] is on record?
**A.** Its value is 8.78 ± 1.2%.

**Q.** What about the “percent Bodipy-positive cells” value [1] of the same compound?
**A.** Its value is 47 ± 9.4%.

Reference: the supplement of paper PMC9135407
